{"source": "PubChem BioAssay AID330", "about": "(DTP/NCI, 2004)", "tested_on": "P388 leukemia ip, CD2F1 mice, survival T/C", "assay": "NCI In Vivo Anticancer Drug Screen. Data for tumor model P388 Leukemia (intraperitoneal) in CD2F1 (CDF1) mice", "conditions": "T/C endpoint: median survival time, higher T/C = longer survival", "note": "The list shows only some results of the screen, not a fair sample: it gathers tests that were run many times, whatever their T/C, doses with no T/C, and many T/C values between a quarter and a half above the control. Other doses and runs of a compound stand elsewhere. T/C: endpoint of the treated group in % of that of the vehicle group. Some doses have a count of surviving animals in place of a T/C: the source files T/C as zero there, which appears to mark a toxic dose or a test without result, not a measured value. Some survivor counts are full or nearly so, which does not show that the dose was tolerated: survival well below the control is almost never listed, so the zero probably covers shortened survival too. Survivors were counted at the toxicity check, usually on the fifth day, unless a day is given; later deaths do not show. Schedules are NCI's codes, taken here to give the interval after Q, in days (D) or hours (H), and the number of doses after X. Where survival is the endpoint, the PubChem record calls one and a half times the control and up active, and a quarter to a half above the control has no call in these data; cut-offs in other NCI protocols can differ. Some T/C values carry the count of animals alive at the toxicity check (mostly the fifth day); where none is given, no animal had died by that day. Some entries were tested several times; the values are given in rising order. Brackets with × say how often a value occurs here.", "data": [{"smiles": "COC(=O)C[C@](O)(CCCC(C)(C)O)C(=O)O[C@@H]1C(OC)=C[C@]23CCCN2CCc2cc4c(cc2[C@H]13)OCO4", "values": [{"measurement": "T/C", "setting": "dose: 0.06 mg/kg/injection, schedule: Q01DX009 (ip), vehicle: clinical formulation", "result": "140 % of control [9 of 10 alive]"}, {"measurement": "T/C", "setting": "dose: 0.06 mg/kg/injection, schedule: Q01DX009 (ip), vehicle: saline", "result": "142 % of control"}, {"measurement": "T/C", "setting": "dose: 0.39 mg/kg/injection, schedule: Q04DX003 (ip), vehicle: saline", "result": "140 % of control"}, {"measurement": "T/C", "setting": "dose: 0.5 mg/kg/injection, schedule: Q01DX005 (iv), vehicle: saline", "result": "137 % of control"}, {"measurement": "T/C", "setting": "dose: 0.65 mg/kg/injection, schedule: Q04DX003 (ip), vehicle: saline + alcohol", "result": "132 % of control"}, {"measurement": "T/C", "setting": "dose: 0.65 mg/kg/injection, schedule: Q04DX003 (ip), vehicle: saline", "result": "138 % of control"}, {"measurement": "T/C", "setting": "dose: 0.72 mg/kg/injection, schedule: Q04DX003 (ip), vehicle: saline", "result": "126 % of control"}, {"measurement": "T/C", "setting": "dose: 0.75 mg/kg/injection, schedule: Q01DX009 (ip), vehicle: saline", "result": "192, 196, 200, 221 % of control"}, {"measurement": "T/C", "setting": "dose: 0.87 mg/kg/injection, schedule: Q01DX009 (ip), vehicle: acid diluted with saline, evaluated on day 5", "result": "186, 194, 211 % of control"}, {"measurement": "T/C", "setting": "dose: 0.87 mg/kg/injection, schedule: Q01DX009 (ip), vehicle: acid diluted with saline, evaluated on day 45", "result": "177 and 193 % of control"}, {"measurement": "T/C", "setting": "dose: 1.0 mg/kg/injection, schedule: Q01DX009 (ip), vehicle: acid diluted with saline, evaluated on day 5", "result": "228 % of control"}, {"measurement": "T/C", "setting": "dose: 1.0 mg/kg/injection, schedule: Q01DX009 (ip), vehicle: acid diluted with saline, evaluated on day 45", "result": "183 and 211 % of control"}, {"measurement": "T/C", "setting": "dose: 1.0 mg/kg/injection, schedule: Q01DX009 (ip), vehicle: acid diluted with saline, evaluated on day 60", "result": "164, 189, 191, 208 % of control"}, {"measurement": "T/C", "setting": "dose: 1.0 mg/kg/injection, schedule: Q01DX009 (ip), vehicle: saline, evaluated on day 30", "result": "250 % of control"}, {"measurement": "T/C", "setting": "dose: 1.0 mg/kg/injection, schedule: Q01DX009 (ip), vehicle: saline, evaluated on day 45", "result": "200, 229, 230 % of control (2×)"}, {"measurement": "T/C", "setting": "dose: 1.08 mg/kg/injection, schedule: Q04DX003 (ip), vehicle: saline + alcohol", "result": "145 % of control"}, {"measurement": "T/C", "setting": "dose: 1.08 mg/kg/injection, schedule: Q04DX003 (ip), vehicle: saline", "result": "141 % of control"}, {"measurement": "T/C", "setting": "dose: 1.2 mg/kg/injection, schedule: Q04DX003 (ip), vehicle: saline", "result": "131 % of control"}, {"measurement": "T/C", "setting": "dose: 1.25 mg/kg/injection, schedule: Q01DX009 (ip), vehicle: acid diluted with saline, evaluated on day 45", "result": "197, 220, 227 % of control"}, {"measurement": "T/C", "setting": "dose: 1.25 mg/kg/injection, schedule: Q01DX009 (ip), vehicle: acid diluted with saline, evaluated on day 60", "result": "175, 189 [9 of 10 alive], 218 % of control"}, {"measurement": "T/C", "setting": "dose: 1.25 mg/kg/injection, schedule: Q01DX009 (ip), vehicle: saline", "result": "210, 233 [9 of 10 alive], 237, 248 % of control"}, {"measurement": "T/C", "setting": "dose: 1.3 mg/kg/injection, schedule: Q01DX009 (ip), vehicle: acid diluted with saline, evaluated on day 5", "result": "203, 216, 227 % of control"}, {"measurement": "T/C", "setting": "dose: 1.3 mg/kg/injection, schedule: Q01DX009 (ip), vehicle: acid diluted with saline, evaluated on day 45", "result": "196, 207, 213 % of control"}, {"measurement": "T/C", "setting": "dose: 1.5 mg/kg/injection, schedule: Q01DX009 (ip), vehicle: acid diluted with saline, evaluated on day 45", "result": "207, 212, 213 % of control"}, {"measurement": "T/C", "setting": "dose: 1.5 mg/kg/injection, schedule: Q01DX009 (ip), vehicle: acid diluted with saline, evaluated on day 60", "result": "191, 197, 198, 224 % of control"}, {"measurement": "T/C", "setting": "dose: 1.5 mg/kg/injection, schedule: Q01DX009 (ip), vehicle: saline", "result": "219, 231, 243 [9 of 10 alive], 250 % of control"}, {"measurement": "survivor count", "setting": "dose: 2.0 mg/kg/injection, schedule: Q01DX005 (iv), vehicle: clinical formulation", "result": "2 of 10"}, {"measurement": "T/C", "setting": "dose: 2.0 mg/kg/injection, schedule: Q01DX009 (ip), vehicle: acid diluted with saline, evaluated on day 5", "result": "67, 219, 223, 281 % of control"}, {"measurement": "T/C", "setting": "dose: 2.0 mg/kg/injection, schedule: Q01DX009 (ip), vehicle: acid diluted with saline, evaluated on day 45", "result": "207 [9 of 10 alive], 208, 218, 227, 230 [9 of 10 alive], 243 % of control"}, {"measurement": "T/C", "setting": "dose: 2.0 mg/kg/injection, schedule: Q01DX009 (ip), vehicle: acid diluted with saline, evaluated on day 60", "result": "201 and 208 % of control"}, {"measurement": "survivor count", "setting": "dose: 2.0 mg/kg/injection, schedule: Q01DX009 (ip), vehicle: acid diluted with saline", "result": "9 of 10"}, {"measurement": "survivor count", "setting": "dose: 2.0 mg/kg/injection, schedule: Q01DX009 (ip), vehicle: clinical formulation", "result": "8 of 10"}, {"measurement": "survivor count", "setting": "dose: 2.0 mg/kg/injection, schedule: Q01DX009 (ip), vehicle: saline", "result": "9 of 10"}, {"measurement": "T/C", "setting": "dose: 2.0 mg/kg/injection, schedule: Q04DX003 (ip), vehicle: saline", "result": "140 % of control"}, {"measurement": "survivor count", "setting": "dose: 3.0 mg/kg/injection, schedule: Q04DX003 (ip), vehicle: saline", "result": "3 of 8"}, {"measurement": "survivor count", "setting": "dose: 4.0 mg/kg/injection, schedule: Q01DX005 (iv), vehicle: clinical formulation", "result": "0 of 10"}, {"measurement": "survivor count", "setting": "dose: 4.0 mg/kg/injection, schedule: Q01DX005 (iv), vehicle: saline", "result": "0 of 10"}, {"measurement": "survivor count", "setting": "dose: 4.0 mg/kg/injection, schedule: Q01DX009 (ip), vehicle: acid diluted with saline", "result": "0 of 5"}, {"measurement": "survivor count", "setting": "dose: 4.0 mg/kg/injection, schedule: Q01DX009 (ip), vehicle: clinical formulation", "result": "2 of 10"}, {"measurement": "survivor count", "setting": "dose: 4.0 mg/kg/injection, schedule: Q01DX009 (ip), vehicle: saline", "result": "2 of 10"}, {"measurement": "survivor count", "setting": "dose: 5.0 mg/kg/injection, schedule: Q04DX003 (ip), vehicle: saline + alcohol", "result": "3 of 8"}, {"measurement": "survivor count", "setting": "dose: 8.0 mg/kg/injection, schedule: Q01DX005 (iv), vehicle: clinical formulation", "result": "0 of 10"}, {"measurement": "survivor count", "setting": "dose: 8.0 mg/kg/injection, schedule: Q01DX005 (iv), vehicle: saline", "result": "0 of 10"}, {"measurement": "survivor count", "setting": "dose: 8.0 mg/kg/injection, schedule: Q01DX009 (ip), vehicle: clinical formulation", "result": "0 of 10"}, {"measurement": "survivor count", "setting": "dose: 8.0 mg/kg/injection, schedule: Q01DX009 (ip), vehicle: saline", "result": "0 of 10"}]}, {"smiles": "COc1ccc2c(c1O)-c1cc(O)cc3c1C(C2)N(C(=O)CN(CCCl)CCCl)CC3", "note": "(stereo unspecified)", "values": [{"measurement": "T/C", "setting": "dose: 3.13 mg/kg/injection, schedule: Q04DX003 (ip), vehicle: distilled water + Tween-80", "result": "130 % of control"}, {"measurement": "T/C", "setting": "dose: 6.25 mg/kg/injection, schedule: Q04DX003 (ip), vehicle: distilled water + Tween-80", "result": "149 % of control"}, {"measurement": "survivor count", "setting": "dose: 100.0 mg/kg/injection, schedule: Q04DX003 (ip), vehicle: water", "result": "3 of 6"}, {"measurement": "survivor count", "setting": "dose: 200.0 mg/kg/injection, schedule: Q04DX003 (ip), vehicle: water", "result": "0 of 6"}]}, {"smiles": "CCC[CH2][Sn]([CH2]CCC)([CH2]CCN(C)C)[CH2]CCN(C)C", "values": [{"measurement": "survivor count", "setting": "dose: 200.0 mg/kg/injection, schedule: Q01DX009 (ip), vehicle: saline with Tween-80", "result": "0 of 6"}]}, {"smiles": "CCOC(=O)c1ccc2c(c1)CCC2", "values": [{"measurement": "survivor count", "setting": "dose: 200.0 mg/kg/injection, schedule: Q01DX009 (ip), vehicle: acetone", "result": "4 of 6"}]}, {"smiles": "C=CC[n+]1cc2c3ccccc3c(N)cc2c2ccccc21", "values": [{"measurement": "survivor count", "setting": "dose: 25.0 mg/kg/injection, schedule: Q04DX003 (ip), vehicle: other", "result": "5 of 6"}, {"measurement": "survivor count", "setting": "dose: 25.0 mg/kg/injection, schedule: Q04DX003 (ip), vehicle: water", "result": "3 of 6"}, {"measurement": "survivor count", "setting": "dose: 50.0 mg/kg/injection, schedule: Q04DX003 (ip), vehicle: other", "result": "0 of 6"}, {"measurement": "survivor count", "setting": "dose: 100.0 mg/kg/injection, schedule: Q04DX003 (ip), vehicle: other", "result": "0 of 6"}, {"measurement": "survivor count", "setting": "dose: 200.0 mg/kg/injection, schedule: Q04DX003 (ip), vehicle: other", "result": "0 of 6"}]}, {"smiles": "CCN(CC)CCOc1ccc(C2=C(c3ccccc3)CCc3cc(OC)ccc32)cc1", "values": [{"measurement": "survivor count", "setting": "dose: 400.0 mg/kg/injection, schedule: Q04DX003 (ip), vehicle: saline with Tween-80", "result": "0 of 6"}]}, {"smiles": "COc1cc(Br)c(CC(NC(=O)c2ccccc2)c2ccc(OC)c(OC)c2OC)cc1OC", "note": "(stereo unspecified)", "values": [{"measurement": "survivor count", "setting": "dose: 50.0 mg/kg/injection, schedule: Q01DX005 (ip), vehicle: saline with Tween-80", "result": "6 of 6"}, {"measurement": "survivor count", "setting": "dose: 100.0 mg/kg/injection, schedule: Q01DX005 (ip), vehicle: saline with Tween-80", "result": "6 of 6"}]}, {"smiles": "CCCCCCCCCCNCCSSCCNC(C)=O", "values": [{"measurement": "survivor count", "setting": "dose: 100.0 mg/kg/injection, schedule: Q01DX005 (ip), vehicle: Klucel (hydroxypropylcellulose) (HPC)", "result": "0 of 5"}, {"measurement": "survivor count", "setting": "dose: 200.0 mg/kg/injection, schedule: Q01DX005 (ip), vehicle: Klucel (hydroxypropylcellulose) (HPC)", "result": "0 of 5"}]}]}
